Assay results from patent US12485119B2, “Methods of treating pulmonary arterial hypertension” (ACTELION PHARMACEUTICALS LTD, priority 2019, dated 2025).
At least one read-out could not be matched to a standard name with certainty.

System: newly diagnosed, treatment-naïve subjects with PAH
Assay: Exposure to study treatments, individual maintenance dose and maximum tolerated dose
Assay type: in vivo, human
Conditions: up to EOMOP; Safety Set
Method: The starting dose of double-blind selexipag or placebo on Day 15±3 is 200 μg twice daily (in the morning and in the evening). The dose is up-titrated in increments of 200 μg twice daily, usually at weekly intervals (see Table 1), until either a maximum dose of 1600 μg twice daily is reached or adverse pharmacological effects that cannot be tolerated or medically managed are experienced, whichever is first. In the event of adverse effects typical of prostanoid therapy, it is recommended not to discontinue double-blind treatment because these effects are usually transient or manageable with symptomatic treatment. If a dose that cannot be tolerated is reached, the dose should be reduced to the previous dose level.

CC(C)N(CCCCOCC(=O)NS(C)(=O)=O)c1cnc(-c2ccccc2)c(-c2ccccc2)n1 [Selexipag, 2-{4-[(5,6-diphenylpyrazin-2-yl)(propan-2-yl)amino]butoxy}-N-(methanesulfonyl)acetamide]
Maximum tolerated dose of double-blind treatment (b.i.d), Mean: 1040.3 µg
